# Results deposited as PubChem BioAssay AID686937 (Drosophila RNAi Screening Center, 2013)
# Test: 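Genes in the fly needed for secretion of protein constitutively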 (primary screen)
# System: Drosophila S2 cells expressing secreted horseradish peroxidase
# Reagent: long dsRNA against Drosophila genes
# Duration: about 5.5 days (5 days dsRNA, then 12 h reporter induction)
# Conditions: reporter expression induced after 5 days of dsRNA, read 12 h later; inducer not stated
# Measured: 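After 5 days of dsRNA and 12 h of reporter induction, medium peroxidase read by chemiluminescence and scored as per-plate z-score; higher values mean more reporter released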
# Direction: z-score: higher = more reporter secreted into medium
# The screen tested about 23,000 reagents; below is a random part of those with a known target gene and a result. 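Reduced-secretion tags in replicate 1 do not always agree with the z-scores; no criterion for assigning the tags was given.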 A plus sign joins genes that one reagent is predicted to hit. Not given: the amount of reagent.
Gene,DRSC id,"z-score, replicate 1","z-score, replicate 2","phenotype, replicate 1"
ng4,DRSC18805,0.16,0.13,
Ect3,DRSC15462,0.03,0.51,
lncRNA:CR43613,DRSC13943,0.45,0.18,
vilya,DRSC18588,0.06,0.27,
Cubn,DRSC18256,0.22,0.38,
CG8841,DRSC07286,0.42,0.37,
CG14180 (retired record),DRSC10179,-0.71,-0.76,
CG6398,DRSC19992,0.08,0.4,
CAHbeta,DRSC14449,0.55,0.46,
CG11694,DRSC14354,-0.08,0.23,
CG4009,DRSC15536,0.18,0.26,
CG11566 (retired record) + stg1,DRSC20473,-4.55,-2.43,reduced secretion
CG11566 (retired record) + stg1,DRSC20481,0.46,0.41,
CG11566 (retired record) + stg1,DRSC20482,0.47,0.07,
CG11566 (retired record) + stg1,DRSC20483,0.39,0.13,
Elp4,DRSC02999,-1.12,-1.16,
GstE9,DRSC06679,0.22,0.17,
Acsx2,DRSC14308,0.22,0.45,
Naa30B,DRSC08245,0.17,0.32,
ste24a,DRSC07314,-0.2,0.23,
CG31462 (retired record),DRSC14359,0.08,0.37,
Brca2,DRSC04219,0.6,0.65,
Brca2,DRSC04220,0.4,0.28,
Spn47C,DRSC07030,0.25,0.32,
Cds,DRSC10938,-0.1,0.04,
mRpS31,DRSC10556,0.27,0.35,
CG42553,DRSC08356,0.14,0.28,
CG13197,DRSC06322,0.52,0.37,
CG43085,DRSC09497,0.07,0.49,
CG15701,DRSC06572,0.33,0.3,
sals,DRSC14925,0.28,0.53,
sals,DRSC16113,0.1,0.24,
CG4880,DRSC19923,0.38,0.29,
CG17994,DRSC04877,0.32,0.35,
Mgtor,DRSC05958,0.38,0.18,
CG32032,DRSC08961,0.24,0.33,
CRAT,DRSC12523,0.24,0.25,
flip,DRSC12326,0.2,0.16,
CG32645,DRSC19683,0.5,0.55,
CG32645,DRSC19889,0.31,0.53,
CG16756,DRSC18115,0.56,-0.17,
Aasdh,DRSC03467,0.71,0.17,
Ir68a,DRSC10599,0.28,0.22,
CG10793,DRSC17760,0.32,0.44,
CG30158,DRSC04956,0.15,,
CG30158,DRSC04974,0.4,0.25,
CG30158,DRSC04975,0.31,0.27,
CG30158,DRSC05012,0.3,0.23,
CG2111,DRSC18205,0.36,0.39,
CG30065,DRSC05420,0.58,0.24,
CG42337,DRSC11686,0.18,-0.02,
CG42337,DRSC11687,-1.97,-1.46,reduced secretion
elgi,DRSC10242,0.28,0.37,

Continued; the last 3 above are carried over.
Gene,DRSC id,"z-score, replicate 1","z-score, replicate 2","phenotype, replicate 1"
CG42337,DRSC11686,0.18,-0.02,
CG42337,DRSC11687,-1.97,-1.46,reduced secretion
elgi,DRSC10242,0.28,0.37,
Taf3,DRSC17170,0.15,-0.27,
CG34049,DRSC00104,-0.41,0.27,
achi,DRSC07276,0.41,0.27,
CG14607,DRSC12551,0.33,0.48,
Syx6,DRSC07032,0.27,0.21,
CG45105,DRSC15002,0.13,-0.66,
CG45105,DRSC15833,-2.37,-0.95,reduced secretion
Socs44A,DRSC06828,0.27,0.27,
FASN3,DRSC20882,0.47,0.17,
MFS16,DRSC04051,-0.12,0.26,
alpha-PheRS,DRSC18224,-0.51,-0.69,
vn,DRSC11408,-0.05,-0.8,
CG8788,DRSC07267,0.11,0.11,
CG6324,DRSC19985,0.37,0.58,
PIP5K59B,DRSC04290,0.5,0.6,
PIP5K59B,DRSC04403,0.53,0.44,
Taf10b,DRSC00792,0.18,0.12,
CG30350,DRSC07690,0.22,0.31,
Cnep1r2,DRSC10950,0.51,0.2,
CG9372,DRSC11068,-0.14,0.09,
Sesn,DRSC04101,0.22,0.23,
Sesn,DRSC04102,0.19,0.5,
Sesn,DRSC04103,0.25,0.51,
CG12783,DRSC14538,0.05,0.38,
Ir31a,DRSC22358,-1.11,0.18,
HmgD,DRSC04619,0.41,0.55,
Ankle2,DRSC20105,-0.57,-1.19,
Ankle2,DRSC20106,0.41,0.38,
schlank,DRSC18102,0.52,0.52,
schlank,DRSC18313,0.4,0.22,
